Data published in paper doi:10.1101/2023.01.26.525744.
Results are given in words; binding and its absence hold for the method and conditions named. Some results given as binding are weak or reduced against the parent protein; the word gives no strength.

Amino acid sequences for entries named in this document (tags omitted). Residues count along the entry.
UniProt P05556, residues 752-798: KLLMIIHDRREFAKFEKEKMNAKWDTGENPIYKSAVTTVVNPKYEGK
UniProt P05106, residues 742-788: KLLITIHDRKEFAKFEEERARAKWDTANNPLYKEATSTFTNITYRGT
UniProt Q96AC1: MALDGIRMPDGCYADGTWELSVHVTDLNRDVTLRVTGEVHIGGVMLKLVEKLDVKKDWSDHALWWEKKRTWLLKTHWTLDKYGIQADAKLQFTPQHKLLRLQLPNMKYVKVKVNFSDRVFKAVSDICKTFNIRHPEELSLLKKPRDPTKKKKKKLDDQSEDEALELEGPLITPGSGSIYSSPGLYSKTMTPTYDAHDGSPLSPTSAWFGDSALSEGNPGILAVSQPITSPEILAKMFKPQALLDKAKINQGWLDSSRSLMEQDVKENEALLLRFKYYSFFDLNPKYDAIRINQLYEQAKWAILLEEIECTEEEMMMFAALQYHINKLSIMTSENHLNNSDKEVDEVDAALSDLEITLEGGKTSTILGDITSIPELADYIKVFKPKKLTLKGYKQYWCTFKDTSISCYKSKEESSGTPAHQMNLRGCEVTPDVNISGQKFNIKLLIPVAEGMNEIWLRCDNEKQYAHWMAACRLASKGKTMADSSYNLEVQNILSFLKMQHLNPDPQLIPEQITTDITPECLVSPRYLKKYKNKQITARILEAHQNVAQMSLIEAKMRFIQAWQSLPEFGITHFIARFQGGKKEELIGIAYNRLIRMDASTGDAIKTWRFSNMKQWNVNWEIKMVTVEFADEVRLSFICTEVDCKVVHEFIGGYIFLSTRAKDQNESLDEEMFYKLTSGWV

Assays:
[1] = target: Twin-Strep-tag integrin β1 cytoplasmic tail (human) (UniProt P05556); assay: pull-down
[2] = target: Twin-Strep-tag integrin β3 cytoplasmic tail (not stated (human or mouse cDNA cloned)) (UniProt P05106); assay: pull-down

## His6SUMO-kindlin2, full length (from UniProt Q96AC1 1-680)
[1]
  binding: binds
[2]
  binding: binds
